About 5,400 (1.8%) of roughly 300,000 compounds were called active. The inconclusive results got no clear call from the source; some entries with a clear call stand among them for comparison. The call rests on the fitted dose curve; tested in HEK293 cells. A potency beside an inconclusive call is a rough fit, not a confirmed value.
Assay: qHTS for inhibitors of binding or entry into cells for Marburg Virus
Conditions: Marburg virus pseudotyped entry inhibition, cell reporter; series mostly up to 37.8 µM
Potency means the concentration at half of the fitted maximal effect.

Row | Structure (SMILES) | Potency
1 | CN(NS(=O)(=O)c1ccc(F)cc1)c1ncc(C(F)(F)F)cc1Cl | inactive
2 | CC(O)CCc1ccc(O)cc1 (configuration not stated) | inactive
3 | CCCC(=O)C1=C(O)C(C(=O)OC)C(C)(C)CC1=Nc1cccc2ccccc12 (configuration not stated) | inconclusive: 25.1 µM [inhibitor, single point]
4 | COc1ccc(NC(=O)[C@H](CCS(C)(=O)=O)N2Cc3ccccc3C2=O)c(OC)c1 | inactive
5 | CC#CCN1C(=O)NC(c2ccccc2)C(C(=O)OCC)=C1c1ccccc1 (configuration not stated) | inactive
6 | O=C(O)c1cccc(S(=O)(=O)Nc2ccccc2C(=O)NCCc2ccccc2)c1 | inconclusive: 35.5 µM [activator, single point]
7 | C=CCNC(=O)c1ccc2nc(Cc3ccc(OC)cc3)oc2c1 | inconclusive: 31.6 µM [activator, partial curve, poor fit]
8 | Cc1ccc(-n2ncc3c(N4CCC(C(N)=O)CC4)ncnc32)c(C)c1 | inactive
9 | COc1ccc2c(=O)c(-c3ccccc3)c(C)oc2c1 | inconclusive: 5.8 µM [activator, partial curve, poor fit]
10 | O=C(NNc1ccc(Cl)cc1)c1cccs1 | inconclusive: 22.4 µM [inhibitor, single point]
11 | COC(=O)c1ccc(NC(=O)c2ccccc2C(=O)Nc2ccc(C(=O)OC)cc2)cc1 | inconclusive: 35.5 µM [inhibitor, single point]
12 | Cc1ccc2oc(-c3ccc(C)c(NC(=O)c4ccc(C(C)(C)C)cc4)c3)nc2c1 | inconclusive: 6.31 µM [activator, partial curve, poor fit]
13 | CC(C)n1c2ccccc2c2cc([N+](=O)[O-])ccc21 | inconclusive: 0.282 µM [inhibitor, partial curve, poor fit]
14 | COc1cccc(CNC(=O)c2nn(-c3ccccc3Cl)nc2CO)c1 | inconclusive: 4.47 µM [activator, single point]
15 | CCCCc1nc2cc(C(=O)N3CCN(c4cnccn4)CC3)ccc2o1 | inconclusive: 0.708 µM [activator, full curve, poor fit]
16 | O=c1cc(/C=C/c2ccccc2)oc2c1ccc1ccccc12 | inconclusive: 35.5 µM [inhibitor, single point]
17 | CC1=C(C(=O)N2CCOCC2)C(c2cccc(C)c2)NC(=S)N1 (configuration not stated) | inconclusive: 35.5 µM [activator, single point]
18 | O=C(NCc1ccncc1)C(=O)Nc1nc(C23CC4CC(CC(C4)C2)C3)cs1 | inconclusive: 35.5 µM [inhibitor, single point]
19 | COc1ccccc1CNc1nc(SC)ncc1CO | inconclusive: 1.41 µM [inhibitor, full curve]
20 | CCOc1cc(N2CCOCC2)c(OCC)cc1NC(=O)c1c(-c2ccccc2Cl)noc1C | inconclusive: 10 µM [inhibitor, single point]
21 | Cc1c(C(=O)N2CCN(Cc3ccc4c(c3)OCO4)CC2)cccc1[N+](=O)[O-] | inconclusive: 0.355 µM [activator, partial curve, poor fit]
22 | N/C(Cc1nc2ccccc2s1)=N\O | inconclusive: 12.6 µM [inhibitor, partial curve, poor fit]
23 | Cc1ccc(NC(=O)/C(C#N)=C/c2cc(C)n(-c3ccc(N4CCOCC4)c([N+](=O)[O-])c3)c2C)c(C)c1 | inconclusive: 2.82 µM [inhibitor, full curve]

Part of the list above, with each value named.
CCOc1cc(N2CCOCC2)c(OCC)cc1NC(=O)c1c(-c2ccccc2Cl)noc1C
  Potency: inconclusive: 10 µM [inhibitor, single point]
Cc1c(C(=O)N2CCN(Cc3ccc4c(c3)OCO4)CC2)cccc1[N+](=O)[O-]
  Potency: inconclusive: 0.355 µM [activator, partial curve, poor fit]
N/C(Cc1nc2ccccc2s1)=N\O
  Potency: inconclusive: 12.6 µM [inhibitor, partial curve, poor fit]

(next part)

Row | Structure (SMILES) | Potency
24 | Clc1ccc(Cn2ccc3ccccc32)cn1 | inconclusive: 12.6 µM [inhibitor, partial curve, poor fit]
25 | CC(=O)Nc1nonc1-c1nc2ccccc2n1CC1CC1 | inconclusive: 0.631 µM [inhibitor, full curve, poor fit]
26 | CN1c2ccccc2-c2nc3ccccc3n2C1c1ccncc1 (configuration not stated) | inactive
27 | NNC(=O)[C@H]1C[C@@H]1c1ccccc1 | inconclusive: 6.51 µM [inhibitor, single point]
28 | COc1ccccc1CNC(=O)Cc1ccc(Br)cc1 | inactive
29 | COc1ccc(NC(=O)C2=Cc3cccc(OC)c3OC2)cc1 | inactive
30 | O=C(Cn1cncn1)N/N=C/c1cccc2ccccc12 | inconclusive: 1.41 µM [activator, partial curve, poor fit]
31 | O=C(O)CSCC(=O)Nc1ccc(-c2nc3ccccc3s2)cc1 | inconclusive: 12.6 µM [inhibitor, partial curve, poor fit]
32 | Cc1ccsc1/C=N/n1c(COc2ccccc2)n[nH]c1=S | inconclusive: 0.316 µM [activator, partial curve, poor fit]
33 | Clc1ccc(NCc2cccnc2)cc1 | inconclusive: 5.62 µM [inhibitor, single point]
34 | O=C(NC1c2ccccc2Oc2ccccc21)c1ccc([N+](=O)[O-])cc1 | inconclusive: 3.55 µM [inhibitor, partial curve, poor fit]
35 | Cc1cn2c(=O)c(C(=O)N3CCN(c4ccccc4F)CC3)cnc2s1 | inconclusive: 10 µM [activator, partial curve, poor fit]
36 | C=CC[n+]1ccc2ccccc2c1C | inconclusive: 12.6 µM [activator, partial curve]
37 | N#C/C(=C\c1ccccn1)c1nc2ccccc2s1 | inconclusive: 32.6 µM [inhibitor, partial curve, poor fit]
38 | COc1ccc2nc(N3C(=O)CNC3=S)sc2c1 | inconclusive: 35.5 µM [inhibitor, single point]
39 | COc1cc(C2C(C#N)=C(N)N(N(C)C)C3=C2C(=O)CCC3)ccc1O (configuration not stated) | inconclusive: 6.31 µM [inhibitor, partial curve]
40 | O=C(O)c1cccc2c1NC(c1cccc([N+](=O)[O-])c1)C1CC(Sc3ccccc3[N+](=O)[O-])C(Cl)C21 (configuration not stated) | inconclusive: 6.31 µM [inhibitor, single point]
41 | N#CC(C#N)=C1C=CC=CN1/C(=C\c1ccco1)C(=O)c1ccccc1 | active: 25.1 µM
42 | CN1CCN(c2nc(-c3cc4ccccc4o3)cs2)CC1 | inconclusive: 4.11 µM [activator, full curve]
43 | Cc1cccc(-c2ncc(CN3CCN(C4CCCC4)C(CCO)C3)cn2)c1 (configuration not stated) | inconclusive: 1.26 µM [activator, partial curve, poor fit]
44 | CN(Cc1ccccc1)S(=O)(=O)c1ccc(NC(=S)NC(=O)C2CCCCC2)cc1 | inconclusive: 35.5 µM [inhibitor, single point]
45 | CCOC(=O)CNC(=O)N1CCc2cc(S(=O)(=O)N3CCC(C)CC3)ccc21 | inconclusive: 2.82 µM [inhibitor, single point]
46 | S=C(NCc1cccnc1)Nc1ccc2c(c1)OCO2 | inactive

Row | Structure (SMILES) | Potency
47 | CC(=O)Nc1ccccc1C(=O)C(=O)Nc1cccc(Br)c1 | inactive
48 | C#CCCOC(=O)N1C2=NC(C(=O)OC)=C(C(=O)OC)[C@@H]3N(CC=C)c4ccccc4[C@]23C[C@H]1C(=O)OC | inconclusive: 5.31 µM [activator, single point]
49 | COC(=O)[C@H](CC(C)C)NC(=O)Nc1ccc2c(c1)OCCO2 | inactive
50 | Cc1nc2ccc(S(=O)(=O)Nc3cccc(-c4nc5cccnc5s4)c3C)cc2s1 | inconclusive: 0.82 µM [inhibitor, full curve, poor fit]
51 | CC(C)(C)c1nnc(N/N=C/c2ccc(Br)cc2)n(N)c1=O | inconclusive: 5.62 µM [activator, single point]
52 | CN(Cc1ccccc1)c1nc(N)nc(Cl)c1C=O | inconclusive: 14.1 µM [inhibitor, partial curve, poor fit]
53 | O=C(CSc1nnc(NC(=O)c2ccco2)s1)Nc1cccc(F)c1 | inactive
54 | Fc1cccc(CN2CCN(C(=S)NCCc3ccccc3)CC2)c1 | inactive
55 | N#Cc1c(NC(=O)CSc2nc(N)cc(=O)[nH]2)sc2c1CCCCCC2 | inconclusive: 6.51 µM [inhibitor, partial curve, poor fit]
56 | COc1ccccc1NC(=S)N1CCN(Cc2ccc3c(c2)OCO3)CC1 | inconclusive: 0.058 µM [inhibitor, partial curve, poor fit]
57 | O=C(Nc1ccccc1)c1cc([N+](=O)[O-])ccc1Cl | inconclusive: 0.282 µM [activator, full curve, poor fit]
58 | Cc1ccc(-c2nnc(SCC(=O)Nc3sc(C)c(C)c3C#N)n2C)cc1 | inconclusive: 5.62 µM [activator, single point]
59 | COC(=O)CSc1nc2nc(C)c(Br)cc2[nH]1 | inactive
60 | CCOC(=O)N1CCN(S(=O)(=O)c2ccc3c(c2)CCN3C(=O)C2CCC2)CC1 | inconclusive: 25.1 µM [inhibitor, partial curve, poor fit]
61 | Cc1cccc(-c2nsc(SCC(=O)c3ccc(Cl)cc3)n2)c1 | inconclusive: 3.55 µM [activator, full curve, poor fit]
62 | C=CCN1C(=O)/C(=C2\SC(N3CCOCC3)=NC2=O)c2cc(Br)ccc21 | inconclusive: 3.16 µM [inhibitor, single point]
63 | COCCN(C(=O)COC(=O)c1cc2c(s1)CCC2)c1c(N)n(Cc2ccccc2)c(=O)[nH]c1=O | inconclusive: 31.6 µM [inhibitor, single point]
64 | CCCC1C(C(=O)OCC)=C(C)NC(C)=C1C(=O)OCC | inconclusive: 35.5 µM [inhibitor, partial curve, poor fit]
65 | N#Cc1nc(-c2ccc(COc3ccccc3)o2)oc1NCc1ccccc1 | inactive
66 | CCOC(=O)C1(Cc2cccc(OC)c2)CCN(CCO)CC1 | inactive
67 | COc1cc(NC(=S)N(C)C)c(OC)cc1Cl | inactive

Source: PubChem BioAssay AID540276 (National Center for Advancing Translational Sciences (NCATS), 2011)
